No constants are given. Whether binding was seen depends on the method and setting. Binding seen in cells or lysates may run through a third protein. A yes stands for co-enrichment or nearness to the bait. Other partners may have been found. Where a sequence is shown, tags or fusion partners need not be part of it.

The chains behind the UniProt entries cited, without tags or fusion partners.
UniProt O94986: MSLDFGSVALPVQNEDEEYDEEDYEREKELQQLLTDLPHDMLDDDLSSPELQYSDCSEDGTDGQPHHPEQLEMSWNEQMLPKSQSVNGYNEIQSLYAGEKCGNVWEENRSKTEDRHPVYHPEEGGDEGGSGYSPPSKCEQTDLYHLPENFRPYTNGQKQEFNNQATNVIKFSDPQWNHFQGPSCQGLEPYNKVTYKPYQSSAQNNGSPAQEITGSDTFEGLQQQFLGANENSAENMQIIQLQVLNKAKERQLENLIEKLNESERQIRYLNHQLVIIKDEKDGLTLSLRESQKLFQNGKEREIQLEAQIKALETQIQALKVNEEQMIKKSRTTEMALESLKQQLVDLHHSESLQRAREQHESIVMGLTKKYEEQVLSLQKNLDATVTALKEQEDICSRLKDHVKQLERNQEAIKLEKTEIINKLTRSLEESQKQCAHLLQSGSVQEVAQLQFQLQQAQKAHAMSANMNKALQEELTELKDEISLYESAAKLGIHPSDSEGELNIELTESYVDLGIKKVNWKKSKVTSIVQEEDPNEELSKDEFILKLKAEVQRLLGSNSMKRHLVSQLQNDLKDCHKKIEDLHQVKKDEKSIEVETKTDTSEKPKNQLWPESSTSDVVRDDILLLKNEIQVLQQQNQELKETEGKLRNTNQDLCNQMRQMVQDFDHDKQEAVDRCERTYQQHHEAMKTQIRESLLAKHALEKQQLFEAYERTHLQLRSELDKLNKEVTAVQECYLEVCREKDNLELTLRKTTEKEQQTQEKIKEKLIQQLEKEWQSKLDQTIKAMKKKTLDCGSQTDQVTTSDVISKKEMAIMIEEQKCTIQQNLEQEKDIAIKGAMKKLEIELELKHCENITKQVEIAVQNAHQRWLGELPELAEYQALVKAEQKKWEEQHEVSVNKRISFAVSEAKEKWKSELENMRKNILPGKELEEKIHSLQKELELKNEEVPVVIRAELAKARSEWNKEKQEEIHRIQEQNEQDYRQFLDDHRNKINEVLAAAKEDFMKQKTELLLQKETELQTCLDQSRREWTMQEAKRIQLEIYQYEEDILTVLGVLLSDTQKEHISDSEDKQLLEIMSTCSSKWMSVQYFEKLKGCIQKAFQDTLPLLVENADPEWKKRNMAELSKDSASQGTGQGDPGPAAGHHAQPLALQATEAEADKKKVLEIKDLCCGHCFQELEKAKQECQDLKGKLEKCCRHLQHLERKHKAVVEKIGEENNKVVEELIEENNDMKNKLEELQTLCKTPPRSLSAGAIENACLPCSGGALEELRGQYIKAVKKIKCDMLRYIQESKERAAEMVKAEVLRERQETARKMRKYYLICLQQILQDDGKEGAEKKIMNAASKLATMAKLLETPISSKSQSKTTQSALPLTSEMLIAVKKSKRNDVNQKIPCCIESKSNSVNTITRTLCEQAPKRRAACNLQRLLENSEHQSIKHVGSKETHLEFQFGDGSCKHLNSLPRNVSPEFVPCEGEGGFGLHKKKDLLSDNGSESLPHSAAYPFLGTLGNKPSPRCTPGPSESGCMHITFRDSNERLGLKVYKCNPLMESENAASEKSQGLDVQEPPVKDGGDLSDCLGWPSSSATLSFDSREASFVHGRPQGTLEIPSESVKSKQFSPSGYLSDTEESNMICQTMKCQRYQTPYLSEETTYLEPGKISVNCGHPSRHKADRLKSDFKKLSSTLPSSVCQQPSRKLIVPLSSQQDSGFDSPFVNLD

In the assay the target is T1, Zz-Plk4-His (recombinant double-tagged Plk4) (human) (UniProt O00444).
T1 sequence: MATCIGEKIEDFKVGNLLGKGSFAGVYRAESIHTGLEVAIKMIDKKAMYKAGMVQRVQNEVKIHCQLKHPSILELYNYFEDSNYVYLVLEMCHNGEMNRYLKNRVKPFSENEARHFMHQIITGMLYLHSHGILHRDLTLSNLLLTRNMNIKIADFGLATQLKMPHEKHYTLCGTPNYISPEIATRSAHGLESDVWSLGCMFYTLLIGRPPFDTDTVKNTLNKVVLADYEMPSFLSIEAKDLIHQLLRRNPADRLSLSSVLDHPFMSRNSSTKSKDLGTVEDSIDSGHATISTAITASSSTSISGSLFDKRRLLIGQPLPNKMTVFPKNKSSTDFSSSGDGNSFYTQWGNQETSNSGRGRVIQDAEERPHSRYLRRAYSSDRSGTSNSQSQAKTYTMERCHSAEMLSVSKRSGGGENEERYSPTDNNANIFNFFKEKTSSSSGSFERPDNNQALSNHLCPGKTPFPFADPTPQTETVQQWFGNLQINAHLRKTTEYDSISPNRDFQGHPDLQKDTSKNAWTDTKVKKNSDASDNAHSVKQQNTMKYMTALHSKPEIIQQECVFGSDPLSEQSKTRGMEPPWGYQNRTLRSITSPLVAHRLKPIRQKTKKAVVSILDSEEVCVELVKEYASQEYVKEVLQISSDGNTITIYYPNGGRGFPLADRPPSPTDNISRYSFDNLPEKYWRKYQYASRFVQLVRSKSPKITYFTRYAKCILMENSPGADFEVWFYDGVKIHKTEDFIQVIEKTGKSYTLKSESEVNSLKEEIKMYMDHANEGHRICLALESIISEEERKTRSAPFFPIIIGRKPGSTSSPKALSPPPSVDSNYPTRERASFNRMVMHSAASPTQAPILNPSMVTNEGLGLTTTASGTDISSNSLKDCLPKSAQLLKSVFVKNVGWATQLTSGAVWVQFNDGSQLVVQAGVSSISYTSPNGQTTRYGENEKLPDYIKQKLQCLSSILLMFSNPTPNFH
The assay is described as follows: affinity purification with mass spectrometry; 15 µg Zz-Plk4 incubated with 3 mg HeLa lysate (G1/S or mitotically arrested) for 2 h at 4°C, captured on rabbit IgG Sepharose by the Zz-tag; NP40 lysis buffer; eluted partners analysed by nanoLC-ESI-MS/MS; only the target purified.

Consider “Cep152, endogenous (from UniProt O94986 1-1710)”, for which the binding result is on record as “binds”.

The record behind these values is article PMC4359743.
